Reference: PubChem BioAssay AID743454 (Peter MacCallum Cancer Centre, 2014)
Assay: 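Search for knock-downs that restore vorinostat killing in resistant colon cancer cells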 (primary screen). System: human HCT116-VR colon cancer cells, selected for vorinostat resistance. Reagent: siRNA pool against human genes, 40 nM siRNA pool. Timing: vorinostat for 24 h, read-out about 72 h after transfection. Conditions: vorinostat at 2.5 µM final. Measurement: 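Two measures, CellTiter-Fluor viability and luminescent caspase 3/7 activity, each as fold change against same-plate mock wells, mean of duplicates, then screen-wide robust z-score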. Scale: viability robust z-score: higher = more viable cells than screen typical; caspase robust z-score: higher = more caspase 3/7 activity than screen typical. Rule for the call: 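a knock-down is a hit when classed RV1 or RV2 for lowered viability, or CA1 or CA2 for caspase activation; those lethal without drug were dropped; hits were retested singly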.
In all, the deposit lists about 18,000 reagents; this is a random part of them. 450 of them (2.5%) were called active. 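Single biological run; no consistent viability z cut-off exists, so the class columns, not z-scores, define the calls.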 A number with no mark means an inactive call.

target | viability hit class | caspase hit class | viability robust z-score | caspase robust z-score
CDSN (GeneID 1041) | no change | no change | -0.66 | 0.96
STK25 (GeneID 10494) | no change | no change | 0.02 | -0.6
ZNF248 (GeneID 57209) | no change | no change | -0.18 | 0.08
UNC93A (GeneID 54346) | no change | no change | 1.06 | 0.24
LRRFIP2 (GeneID 9209) | no change | no change | 0.48 | 0.66
CCDC32 (GeneID 90416) | no change | no change | -1.18 | 0.77
HECW2 (GeneID 57520) | no change | no change | -0.23 | 0.22
OR3A3 (GeneID 8392) | no change | no change | 0.3 | 0.56
GJB6 (GeneID 10804) | no change | no change | -1.56 | 1.54
TEAD4 (GeneID 7004) | no change | no change | 0.1 | 0.84
CSTF2T (GeneID 23283) | no change | no change | -0.44 | 1.9
RGL3 (GeneID 57139) | no change | no change | -0.7 | 2.13
PRAMEF1 (GeneID 65121) | no change | no change | -0.07 | 0.6
MEF2A (GeneID 4205) | no change | no change | 1.24 | -0.58
OR6K6 (GeneID 128371) | no change | no change | -0.4 | -0.27
NOSTRIN (GeneID 115677) | no change | no change | -1.4 | 3.56
MIR22HG (GeneID 84981) | no change | no change | 0.4 | -1.25
AQP5 (GeneID 362) | no change | no change | 0.91 | 0.24
ZNF197 (GeneID 10168) | no change | no change | -0.74 | 0.93
SNCG (GeneID 6623) | no change | no change | 0.76 | -0.81
RBMS1 (GeneID 5937) | no change | no change | -0.32 | 0.19
NFRKB (GeneID 4798) | no change | no change | -1.41 | 0.69
TNFSF14 (GeneID 8740) | no change | no change | -0.79 | 1.07
FAM174A (GeneID 345757) | no change | no change | 0.21 | -1.25
PITHD1 (GeneID 57095) | no change | no change | -0.56 | 0
DEFA4 (GeneID 1669) | no change | no change | -1.77 | 3.05
ARHGEF2 (GeneID 9181) | no change | no change | -1.68 | -0.16
LIMD1 (GeneID 8994) | no change | no change | -0.51 | 2.5
BRI3BP (GeneID 140707) | no change | no change | -0.24 | 0.34
PRMT2IP (GeneID 56905) | no change | no change | 0.11 | 1.52
NEFH (GeneID 4744) | no change | no change | -0.21 | -0.52
TICAM1 (GeneID 148022) | no change | no change | -0.02 | 1.33
RPS3 (GeneID 6188) | no change | no change | -4.83 | -1.92
LIMK1 (GeneID 3984) | no change | no change | 0.82 | -0.01
SNRPF (GeneID 6636) | no change | no change | -3.26 | -0.6
CLGN (GeneID 1047) | no change | no change | -1.04 | 0.05
NUFIP2 (GeneID 57532) | no change | no change | -1.19 | -0.15
FERMT2 (GeneID 10979) | no change (active) | CA2 (caspase activation) | -2.34 | 6.12
KRTAP12-3 (GeneID 386683) | no change | no change | -0.16 | -0.66
PARM1 (GeneID 25849) | no change | no change | 0.82 | 1.86
DDIAS (GeneID 220042) | no change | no change | -0.75 | -0.01
MTERF1 (GeneID 7978) | no change | no change | 0.1 | -0.04
TRNAU1AP (GeneID 54952) | no change | no change | -1.32 | -0.37
CALML6 (GeneID 163688) | no change | no change | 1.14 | -0.12
YTHDF3 (GeneID 253943) | no change | no change | -0.13 | 0.48
NRG3 (GeneID 10718) | no change | no change | 0.66 | -0.77
HNMT (GeneID 3176) | no change | no change | -0.55 | 1.38
GAS2 (GeneID 2620) | no change | no change | -0.86 | -1.02
SLC17A2 (GeneID 10246) | no change | no change | 0.96 | -0.12
CDC6 (GeneID 990) | no change | no change | -2.53 | 1.42
FBXO16 (GeneID 157574) | no change | no change | -0.29 | -1.16
FZD6 (GeneID 8323) | no change | no change | 0.74 | -0.4
PAPPA2 (GeneID 60676) | no change | no change | 0.84 | -0.33
NUDT15 (GeneID 55270) | no change (active) | CA1 (caspase activation) | -1.84 | 5.8
ADGRB3 (GeneID 577) | no change | no change | -0.32 | 1.28
TRPM2 (GeneID 7226) | no change | no change | -0.07 | 0.23
ARHGEF4 (GeneID 50649) | no change | no change | -0.68 | 2.34
ZNF502 (GeneID 91392) | no change | no change | -0.14 | -0.64
WDR11 (GeneID 55717) | no change | no change | -0.96 | 2.54
ETFRF1 (GeneID 144363) | no change | no change | 1.5 | -0.16
DOCK2 (GeneID 1794) | no change | no change | 2.02 | -0.75
EMC6 (GeneID 83460) | no change | no change | -0.66 | -0.85
SERINC1 (GeneID 57515) | no change | no change | -0.05 | -0.45
RBAKDN (GeneID 389458) | no change | no change | 0.32 | 0.38
PLD1 (GeneID 5337) | no change | no change | 0.24 | -0.74
BTN2A2 (GeneID 10385) | no change | no change | -0.51 | -0.94
ESD (GeneID 2098) | no change | no change | 2.91 | 0.59
COA3 (GeneID 28958) | no change | no change | 0.28 | 0.14
HOMER1 (GeneID 9456) | no change | no change | 0.55 | -0.78
RASL12 (GeneID 51285) | no change | no change | 0.18 | 0.26
GSG1 (GeneID 83445) | no change | no change | -0.63 | 0.26
URB2 (GeneID 9816) | no change | no change | -0.64 | 2.93
DEFB127 (GeneID 140850) | no change | no change | -0.74 | 0.8

Just “viability hit class” (9 entries from above):
SNCG (GeneID 6623)	no change
RBMS1 (GeneID 5937)	no change
NFRKB (GeneID 4798)	no change
TNFSF14 (GeneID 8740)	no change
FAM174A (GeneID 345757)	no change
PITHD1 (GeneID 57095)	no change
DEFA4 (GeneID 1669)	no change
ARHGEF2 (GeneID 9181)	no change
LIMD1 (GeneID 8994)	no change
